Hit rate of the full screen: of about 390,000 compounds, about 4,000 (1%) were called active. Inconclusive results, whose numbers are uncertain, are shown with a selection of clear calls. Calls follow the shape of the dose curve; as a rule, active = well fitted inhibition curve with a large enough effect; inconclusive = small, poorly fitted or top-dose-only effect, or another doubt; inactive = no such curve, though single readings can be large or run the other way. A potency beside an inconclusive call is a rough fit, not a confirmed value.
What follows are molecules tested against DNA polymerase iota (Homo sapiens) (UniProt Q9UNA4) (assay: qHTS for Inhibitors of Polymerase Iota). Details: Pol iota fluorescent replication assay, 10 min; series mostly up to 115 µM; activity, negative = inhibition: at the top concentration.
In short: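 Fluorescent replication assay read twice, at 0 min and 10 min after adding 50 nM (final) substrate. Enzyme (10 nM) and compounds were first incubated 15 min at room temperature; enzyme-free buffer wells were negative controls.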
Potency is read from the fitted curve at half-maximal effect.

Chains of the proteins cited; added tags and fusions are not shown. Lines headed by an entry give the natural chain unless they say otherwise; changes in a name come on top.
UniProt Q9UNA4: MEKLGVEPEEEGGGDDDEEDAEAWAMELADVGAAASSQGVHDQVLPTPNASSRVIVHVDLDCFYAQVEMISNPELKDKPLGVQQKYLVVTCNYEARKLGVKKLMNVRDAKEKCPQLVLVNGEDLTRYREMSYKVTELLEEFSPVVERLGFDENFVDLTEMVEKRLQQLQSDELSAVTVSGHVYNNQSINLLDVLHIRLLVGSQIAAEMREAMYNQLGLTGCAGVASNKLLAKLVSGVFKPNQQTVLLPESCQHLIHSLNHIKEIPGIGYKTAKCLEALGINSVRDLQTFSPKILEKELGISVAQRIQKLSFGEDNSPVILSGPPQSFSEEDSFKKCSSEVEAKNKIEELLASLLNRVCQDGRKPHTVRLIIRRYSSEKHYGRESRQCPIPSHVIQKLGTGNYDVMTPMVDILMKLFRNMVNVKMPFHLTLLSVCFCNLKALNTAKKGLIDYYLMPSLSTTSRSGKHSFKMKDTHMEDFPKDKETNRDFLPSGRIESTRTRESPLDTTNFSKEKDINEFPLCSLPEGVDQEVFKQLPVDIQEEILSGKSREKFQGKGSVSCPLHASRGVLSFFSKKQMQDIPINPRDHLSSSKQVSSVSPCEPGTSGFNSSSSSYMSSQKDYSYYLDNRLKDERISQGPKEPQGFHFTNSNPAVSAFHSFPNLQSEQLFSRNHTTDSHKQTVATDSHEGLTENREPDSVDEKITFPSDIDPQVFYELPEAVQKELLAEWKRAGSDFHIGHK

Potency, inconclusive:
Cc1ccc(N=C2SC(C(=O)NCCc3ccccc3)CC(=O)N2C)cc1C (stereo not given) 31.6 µM [inhibitor, partial curve, poor fit]
Fc1ccc2c(c1)C1C=CCC1C(c1cc3c(cc1Br)OCO3)N2 (stereo not given) 25.1 µM [inhibitor, single point]
CC(C)c1ccc(NC(=O)C2CCN(S(=O)(=O)c3cccc4nonc34)CC2)cc1 89.1 µM [inhibitor, single point]
CCC(OC(=O)c1nsc(Cl)c1Cl)C(=O)NC(C)(C)C (stereo not given) 22.4 µM [inhibitor, partial curve, poor fit]
COc1cc(S(=O)(=O)N(Cc2cccnc2)Cc2ccco2)ccc1-n1cnnn1 10 µM [inhibitor, full curve, poor fit]
COc1ccc(OC)c(/C=N/NC(=O)CC2C(=O)NN=C2C)c1 (stereo not given) 89.1 µM [inhibitor, single point]
CCC1=Nc2cc(C(=O)NCCN3CCOCC3)ccc2Sc2ccc(Br)cc21 89.1 µM [inhibitor, single point]
COc1ccc(NC(=O)CN(C)CC(=O)Nc2sc3c(c2C(N)=O)CCC3)cc1 28.2 µM [inhibitor, partial curve, poor fit]
CN1CCN(CC#CC(C)(O)C2CC3C=CC2C3)CC1 (stereo not given) 8.91 µM [inhibitor, partial curve]
CCOc1ccccc1NC(=O)c1cc(CC(C)C)oc1C 5.01 µM [inhibitor, full curve, poor fit]
COc1ccc(C(=O)N2CCC3(CC2)NCCc2[nH]cnc23)cc1 1.41 µM [inhibitor, full curve, poor fit]
CCC(CC)C(=O)Nc1ccc(OCc2cc(=O)n3ccc(C)cc3n2)cc1 89.1 µM [inhibitor, single point]
CC(C)(C)NC(=O)C[C@H]1C[C@H](C(=O)N2CCOCC2)[C@@]2(CCC3CCCC3)c3[nH]c4cc(-c5ccco5)ccc4c3CCN2C1=O 7.94 µM [inhibitor, partial curve, poor fit]

An excerpt from above in order of molar mass, low to high.
Potency, inconclusive:
CN1CCN(CC#CC(C)(O)C2CC3C=CC2C3)CC1 (stereo not given) 8.91 µM [inhibitor, partial curve]
CCOc1ccccc1NC(=O)c1cc(CC(C)C)oc1C 5.01 µM [inhibitor, full curve, poor fit]
CC(C)(C)NC(=O)C[C@H]1C[C@H](C(=O)N2CCOCC2)[C@@]2(CCC3CCCC3)c3[nH]c4cc(-c5ccco5)ccc4c3CCN2C1=O 7.94 µM [inhibitor, partial curve, poor fit]

Next part:

Potency, active:
Nc1cc(N)cc(N)c1 1.58 µM

activity, negative = inhibition, inactive:
O=C1OCCN1N1CCOC1=O 40.4%
CCOC(=O)c1c(NC(=O)c2nc(SCC)ncc2Cl)sc2c1CCCC2 3.44%
CC(NC(=O)c1cccc(S(=O)(=O)N(C)C)c1)C1CC2CCC1C2 (stereo not given) 18.9%
Cc1cc(NC(=O)c2cc(-c3ccc(Cl)cc3)on2)n(-c2ccccc2)n1 -1.36%
O=C(c1ccc2c(c1)CCN2S(=O)(=O)c1ccc(Cl)cc1)N1CCN(c2ccccc2F)CC1 -1.24%
COC(=O)C1=C(C)N(C2CCCCC2)C(=O)/C1=C\c1cccs1 6.64%

From PubChem BioAssay AID588590 (National Center for Advancing Translational Sciences (NCATS), 2011)
